PubChem BioAssay AID1259425 | University of Nebraska Medical Center | 2018
Test: 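Find knockdowns that reproduce the gene expression pattern seen when KSR1 is lost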 (primary screen). Cells: HCT116 human colon cancer cells. Reagents: siRNA pool against human genes, 50 nM siRNA. Detection: 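mRNA of six signature genes measured together by branched-DNA assay after 50 nM siRNA pool, blank removed, divided by geometric mean of two housekeeping genes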. Reading the numbers: BNIP3L mRNA: higher = more BNIP3L transcript after knockdown; NDRG1 mRNA: higher = more NDRG1 transcript after knockdown; BNIP3 mRNA: higher = more BNIP3 transcript after knockdown; ALDOC mRNA: higher = more ALDOC transcript after knockdown; ACSL5 mRNA: higher = more ACSL5 transcript after knockdown.
Here is an unselected part of about 14,000 reagents. No sequences are given here. Not stated in the record: the time to read-out.

Target gene	BNIP3L mRNA, set 1	NDRG1 mRNA, set 1	BNIP3 mRNA, set 1	ALDOC mRNA, set 1	ACSL5 mRNA, set 1
BMP5 (GeneID 653)	0.0563	0.124	0.163	0.014	0.0917
P3H3 (GeneID 10536)	0.19	0.423	0.749	0.0733	0.233
CX3CR1 (GeneID 1524)	0.23	0.199	0.461	0.035	0.398
CBY1 (GeneID 25776)	0.23	0.876	0.411	0.0562	0.204
WNT10B (GeneID 7480)	0.0553	0.115	0.0962	0.0531	0.146
KCNQ4 (GeneID 9132)	0.183	0.398	0.186	0.0236	0.18
MAT2A (GeneID 4144)	0.047	0.0907	0.242	0.024	0.125
UTP20 (GeneID 27340)	0.0826	0.105	0.297	0.0102	0.115
CYP27A1 (GeneID 1593)	0.0831	0.149	0.288	0.00788	0.241
NPAT (GeneID 4863)	0.142	0.23	0.232	0.039	0.189
NOA1 (GeneID 84273)	0.208	0.164	0.364	0.0983	0.234
TWNK (GeneID 56652)	0.104	0.0546	0.165	0.0281	0.084
HSPC047 (retired record) (GeneID 29060)	0.198	0.26	0.275	0.0602	0.25
GLRX2 (GeneID 51022)	0.0794	0.231	0.296	0.0227	0.308
LOXL2 (GeneID 4017)	0.0931	0.365	0.289	0.0559	0.139
RPA2 (GeneID 6118)	0.085	0.175	0.244	0.0132	0.101
VPS39 (GeneID 23339)	0.12	0.231	0.234	0.0179	0.261
PGAP6 (GeneID 58986)	0.1	0.115	0.218	0.0656	0.0723
XYLT2 (GeneID 64132)	0.157	0.278	0.217	0.0229	0.224
ZNF205 (GeneID 7755)	0.0739	0.244	0.26	0.0311	0.102
ESPL1 (GeneID 9700)	0.0863	0.213	0.261	0.0375	0.16
CACNG6 (GeneID 59285)	0.258	0.303	0.268	0.0319	0.186
CBX1 (GeneID 10951)	0.115	0.235	0.367	0.0674	0.097
STRN3 (GeneID 29966)	0.13	0.361	0.404	0.0264	0.149

Reformatted: 8 of the entries above
CX3CR1 (GeneID 1524) — BNIP3L mRNA, set 1: 0.23; NDRG1 mRNA, set 1: 0.199; BNIP3 mRNA, set 1: 0.461; ALDOC mRNA, set 1: 0.035; ACSL5 mRNA, set 1: 0.398
CBY1 (GeneID 25776) — BNIP3L mRNA, set 1: 0.23; NDRG1 mRNA, set 1: 0.876; BNIP3 mRNA, set 1: 0.411; ALDOC mRNA, set 1: 0.0562; ACSL5 mRNA, set 1: 0.204
WNT10B (GeneID 7480) — BNIP3L mRNA, set 1: 0.0553; NDRG1 mRNA, set 1: 0.115; BNIP3 mRNA, set 1: 0.0962; ALDOC mRNA, set 1: 0.0531; ACSL5 mRNA, set 1: 0.146
KCNQ4 (GeneID 9132) — BNIP3L mRNA, set 1: 0.183; NDRG1 mRNA, set 1: 0.398; BNIP3 mRNA, set 1: 0.186; ALDOC mRNA, set 1: 0.0236; ACSL5 mRNA, set 1: 0.18
MAT2A (GeneID 4144) — BNIP3L mRNA, set 1: 0.047; NDRG1 mRNA, set 1: 0.0907; BNIP3 mRNA, set 1: 0.242; ALDOC mRNA, set 1: 0.024; ACSL5 mRNA, set 1: 0.125
UTP20 (GeneID 27340) — BNIP3L mRNA, set 1: 0.0826; NDRG1 mRNA, set 1: 0.105; BNIP3 mRNA, set 1: 0.297; ALDOC mRNA, set 1: 0.0102; ACSL5 mRNA, set 1: 0.115
CYP27A1 (GeneID 1593) — BNIP3L mRNA, set 1: 0.0831; NDRG1 mRNA, set 1: 0.149; BNIP3 mRNA, set 1: 0.288; ALDOC mRNA, set 1: 0.00788; ACSL5 mRNA, set 1: 0.241
NPAT (GeneID 4863) — BNIP3L mRNA, set 1: 0.142; NDRG1 mRNA, set 1: 0.23; BNIP3 mRNA, set 1: 0.232; ALDOC mRNA, set 1: 0.039; ACSL5 mRNA, set 1: 0.189

The listing continues:
Target gene	BNIP3L mRNA, set 1	NDRG1 mRNA, set 1	BNIP3 mRNA, set 1	ALDOC mRNA, set 1	ACSL5 mRNA, set 1
TF (GeneID 7018)	0.028	0.0548	0.209	0.0102	0.197
PAPOLB (GeneID 56903)	0.13	0.37	0.498	0.0408	0.427
CLCN2 (GeneID 1181)	0.146	0.145	0.343	0.0456	0.378
LARS1 (GeneID 51520)	0.246	0.558	0.321	0.0157	0.604
ABCG5 (GeneID 64240)	0.242	0.232	0.41	0.0268	0.314
NKX3-1 (GeneID 4824)	0.0633	0.301	0.275	0.0135	0.126
PUDP (GeneID 8226)	0.0427	0.0942	0.24	0.0215	0.0982
TFAP2A (GeneID 7020)	0.124	0.133	0.225	0.0124	0.115
FRAT1 (GeneID 10023)	0.0665	0.254	0.279	0.0239	0.201
FAR1 (GeneID 84188)	0.254	0.212	0.292	0.0569	0.288
AKAP6 (GeneID 9472)	0.17	0.0896	0.37	0.00645	0.213
SHH (GeneID 6469)	0.175	0.186	0.584	0.039	0.197
MMADHC (GeneID 27249)	0.135	0.18	0.242	0.0262	0.151
METTL17 (GeneID 64745)	0.0936	0.118	0.335	0.0477	0.0962
RAB3IL1 (GeneID 5866)	0.0812	0.452	0.312	0.0246	0.292
MARK4 (GeneID 57787)	0.0811	0.0937	0.267	0.00878	0.14
DNMT3B (GeneID 1789)	0.209	0.465	0.275	0.0886	0.318
ANKRD11 (GeneID 29123)	0.0782	0.254	0.364	0.0384	0.0865
SEC14L5 (GeneID 9717)	0.204	0.158	0.328	0.0486	0.133
H1-5 (GeneID 3009)	0.183	0.364	0.35	0.0302	0.107
MRPL13 (GeneID 28998)	0.127	0.258	0.323	0.0173	0.186
NUDT3 (GeneID 11165)	0.0616	0.224	0.189	0.0269	0.0958
SNTB1 (GeneID 6641)	0.173	0.354	0.362	0.0999	0.172
IL16 (GeneID 3603)	0.0814	0.11	0.325	0.0192	0.163
RUNX1T1 (GeneID 862)	0.11	0.0801	0.34	0.00445	0.122
BRMS1L (GeneID 84312)	0.152	0.321	0.24	0.153	0.539
